The supplement of paper PMC10849652
The list shows a part of the results.

Sequences of proteins named here, by UniProt entry; tags and fusion partners are left off. A change or cut given only in a name is not applied to a line headed by its entry.
UniProt Q9UGH3: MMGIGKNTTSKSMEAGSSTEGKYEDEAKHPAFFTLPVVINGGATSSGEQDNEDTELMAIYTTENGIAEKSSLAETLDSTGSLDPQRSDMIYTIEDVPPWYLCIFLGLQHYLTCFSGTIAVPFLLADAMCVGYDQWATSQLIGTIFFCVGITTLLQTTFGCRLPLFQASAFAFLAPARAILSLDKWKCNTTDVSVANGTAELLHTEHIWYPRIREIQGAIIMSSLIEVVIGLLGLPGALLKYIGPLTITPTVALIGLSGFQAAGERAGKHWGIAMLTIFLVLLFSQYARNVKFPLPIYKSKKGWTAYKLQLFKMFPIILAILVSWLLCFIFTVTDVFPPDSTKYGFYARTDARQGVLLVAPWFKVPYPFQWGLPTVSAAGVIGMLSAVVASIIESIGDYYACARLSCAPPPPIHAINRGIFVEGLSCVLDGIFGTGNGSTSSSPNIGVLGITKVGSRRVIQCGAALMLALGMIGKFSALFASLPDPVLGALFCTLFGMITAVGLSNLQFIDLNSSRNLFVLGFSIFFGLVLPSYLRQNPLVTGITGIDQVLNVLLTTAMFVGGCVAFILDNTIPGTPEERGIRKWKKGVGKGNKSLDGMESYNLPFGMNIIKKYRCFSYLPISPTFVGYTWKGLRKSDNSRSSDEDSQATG
UniProt Q9NQQ7: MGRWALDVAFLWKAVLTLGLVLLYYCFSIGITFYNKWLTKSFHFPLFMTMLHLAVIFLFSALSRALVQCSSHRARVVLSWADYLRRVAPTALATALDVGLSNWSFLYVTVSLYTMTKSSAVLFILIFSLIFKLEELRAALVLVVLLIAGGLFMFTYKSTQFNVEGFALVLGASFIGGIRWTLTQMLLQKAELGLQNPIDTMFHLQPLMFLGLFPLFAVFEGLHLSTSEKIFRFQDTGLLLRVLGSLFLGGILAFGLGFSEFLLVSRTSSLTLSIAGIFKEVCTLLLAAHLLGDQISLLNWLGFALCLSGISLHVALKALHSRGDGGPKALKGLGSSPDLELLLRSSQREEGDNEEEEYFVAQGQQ
UniProt Q9H015: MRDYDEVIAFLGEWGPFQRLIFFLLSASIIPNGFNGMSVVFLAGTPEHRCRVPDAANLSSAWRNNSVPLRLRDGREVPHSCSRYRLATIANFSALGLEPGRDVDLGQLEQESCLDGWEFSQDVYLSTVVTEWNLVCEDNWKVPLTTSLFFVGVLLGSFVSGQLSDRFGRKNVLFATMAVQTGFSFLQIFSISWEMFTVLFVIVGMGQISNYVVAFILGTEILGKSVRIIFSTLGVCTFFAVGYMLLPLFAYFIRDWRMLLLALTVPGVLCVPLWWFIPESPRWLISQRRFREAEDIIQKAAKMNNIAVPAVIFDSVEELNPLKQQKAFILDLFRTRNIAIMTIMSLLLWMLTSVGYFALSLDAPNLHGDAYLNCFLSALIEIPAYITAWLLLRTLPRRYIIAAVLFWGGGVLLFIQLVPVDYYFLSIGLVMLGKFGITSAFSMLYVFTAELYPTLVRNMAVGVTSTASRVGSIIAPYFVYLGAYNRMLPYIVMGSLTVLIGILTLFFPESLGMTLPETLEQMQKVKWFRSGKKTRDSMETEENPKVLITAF
UniProt Q8N2U9: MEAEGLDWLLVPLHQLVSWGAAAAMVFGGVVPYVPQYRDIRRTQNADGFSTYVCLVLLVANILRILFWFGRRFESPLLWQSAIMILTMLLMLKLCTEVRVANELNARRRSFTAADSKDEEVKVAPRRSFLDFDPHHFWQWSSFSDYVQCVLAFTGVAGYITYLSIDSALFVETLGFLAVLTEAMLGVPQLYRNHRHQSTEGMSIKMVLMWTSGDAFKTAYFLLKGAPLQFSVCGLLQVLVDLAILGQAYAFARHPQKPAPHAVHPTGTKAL
UniProt Q8IVJ1: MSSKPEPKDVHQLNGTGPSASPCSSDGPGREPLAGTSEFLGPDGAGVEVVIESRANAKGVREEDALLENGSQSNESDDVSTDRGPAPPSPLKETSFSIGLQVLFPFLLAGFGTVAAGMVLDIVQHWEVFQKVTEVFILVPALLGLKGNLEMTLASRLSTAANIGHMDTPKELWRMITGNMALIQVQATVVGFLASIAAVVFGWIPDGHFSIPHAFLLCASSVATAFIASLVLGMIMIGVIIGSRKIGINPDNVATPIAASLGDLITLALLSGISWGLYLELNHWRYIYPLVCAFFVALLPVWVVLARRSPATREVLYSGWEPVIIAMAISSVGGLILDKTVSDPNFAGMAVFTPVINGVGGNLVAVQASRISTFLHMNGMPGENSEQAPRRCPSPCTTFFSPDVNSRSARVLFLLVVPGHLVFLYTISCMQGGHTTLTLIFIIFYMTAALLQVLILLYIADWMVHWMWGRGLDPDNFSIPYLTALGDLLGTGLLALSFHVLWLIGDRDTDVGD
UniProt Q96A46: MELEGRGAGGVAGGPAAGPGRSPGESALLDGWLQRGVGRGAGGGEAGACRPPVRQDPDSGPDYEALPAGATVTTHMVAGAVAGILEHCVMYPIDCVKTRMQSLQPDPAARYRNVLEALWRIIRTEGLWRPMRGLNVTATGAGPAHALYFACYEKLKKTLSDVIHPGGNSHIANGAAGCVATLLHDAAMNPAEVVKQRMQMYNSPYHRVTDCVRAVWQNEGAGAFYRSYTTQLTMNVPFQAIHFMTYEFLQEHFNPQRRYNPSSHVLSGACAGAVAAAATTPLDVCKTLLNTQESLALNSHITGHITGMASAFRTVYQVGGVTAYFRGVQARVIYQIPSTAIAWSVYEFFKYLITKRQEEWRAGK
UniProt O76082: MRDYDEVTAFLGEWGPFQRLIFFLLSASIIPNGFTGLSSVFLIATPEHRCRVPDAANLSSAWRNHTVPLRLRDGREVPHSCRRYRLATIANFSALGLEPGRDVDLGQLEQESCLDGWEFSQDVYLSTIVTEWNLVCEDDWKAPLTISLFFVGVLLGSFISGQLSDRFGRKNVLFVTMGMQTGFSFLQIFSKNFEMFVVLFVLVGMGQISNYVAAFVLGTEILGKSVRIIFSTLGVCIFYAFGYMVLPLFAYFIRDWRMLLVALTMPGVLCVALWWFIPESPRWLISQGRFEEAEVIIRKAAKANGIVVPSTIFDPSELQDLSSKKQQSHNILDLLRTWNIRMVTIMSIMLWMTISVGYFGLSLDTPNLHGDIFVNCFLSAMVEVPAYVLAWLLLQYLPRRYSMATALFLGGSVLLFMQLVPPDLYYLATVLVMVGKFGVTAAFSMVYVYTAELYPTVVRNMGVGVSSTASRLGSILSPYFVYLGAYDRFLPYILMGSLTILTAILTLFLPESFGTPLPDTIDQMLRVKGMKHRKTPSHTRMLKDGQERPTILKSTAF
UniProt Q6P1K1: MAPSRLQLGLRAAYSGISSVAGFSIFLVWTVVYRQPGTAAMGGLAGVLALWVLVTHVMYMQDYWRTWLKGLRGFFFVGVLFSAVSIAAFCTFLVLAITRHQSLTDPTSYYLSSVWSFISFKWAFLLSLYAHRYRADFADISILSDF
UniProt Q9NRA2: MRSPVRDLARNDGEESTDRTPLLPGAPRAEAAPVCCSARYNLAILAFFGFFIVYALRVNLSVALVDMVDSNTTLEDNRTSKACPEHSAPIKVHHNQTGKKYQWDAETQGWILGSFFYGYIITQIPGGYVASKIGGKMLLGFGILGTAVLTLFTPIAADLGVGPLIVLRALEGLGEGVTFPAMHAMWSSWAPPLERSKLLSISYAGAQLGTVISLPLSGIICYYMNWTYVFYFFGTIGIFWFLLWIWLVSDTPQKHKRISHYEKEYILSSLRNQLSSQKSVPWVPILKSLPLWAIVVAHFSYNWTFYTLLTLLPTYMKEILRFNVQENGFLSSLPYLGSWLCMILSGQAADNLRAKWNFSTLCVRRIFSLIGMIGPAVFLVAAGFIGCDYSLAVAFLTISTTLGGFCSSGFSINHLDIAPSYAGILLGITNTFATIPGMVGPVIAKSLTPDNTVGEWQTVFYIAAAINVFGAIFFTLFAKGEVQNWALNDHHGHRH
UniProt Q8IWA5: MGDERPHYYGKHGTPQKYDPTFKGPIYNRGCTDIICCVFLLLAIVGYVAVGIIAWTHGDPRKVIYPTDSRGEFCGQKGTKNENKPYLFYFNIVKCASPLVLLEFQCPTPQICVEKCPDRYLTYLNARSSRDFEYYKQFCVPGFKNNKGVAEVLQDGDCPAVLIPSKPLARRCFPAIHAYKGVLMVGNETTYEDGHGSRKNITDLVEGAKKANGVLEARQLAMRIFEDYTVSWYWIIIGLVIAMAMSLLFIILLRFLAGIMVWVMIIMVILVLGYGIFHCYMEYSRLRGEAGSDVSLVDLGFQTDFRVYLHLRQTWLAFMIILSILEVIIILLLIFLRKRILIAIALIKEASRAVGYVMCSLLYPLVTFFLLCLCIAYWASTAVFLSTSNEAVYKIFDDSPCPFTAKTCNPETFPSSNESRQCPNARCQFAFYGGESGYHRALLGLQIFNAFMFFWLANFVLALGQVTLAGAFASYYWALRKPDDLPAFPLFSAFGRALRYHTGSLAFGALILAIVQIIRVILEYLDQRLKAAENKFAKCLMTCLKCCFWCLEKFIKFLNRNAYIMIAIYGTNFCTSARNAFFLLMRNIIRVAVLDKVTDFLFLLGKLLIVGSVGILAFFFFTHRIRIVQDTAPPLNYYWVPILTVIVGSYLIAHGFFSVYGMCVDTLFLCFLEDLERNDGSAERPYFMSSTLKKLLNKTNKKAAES
UniProt Q96NT5: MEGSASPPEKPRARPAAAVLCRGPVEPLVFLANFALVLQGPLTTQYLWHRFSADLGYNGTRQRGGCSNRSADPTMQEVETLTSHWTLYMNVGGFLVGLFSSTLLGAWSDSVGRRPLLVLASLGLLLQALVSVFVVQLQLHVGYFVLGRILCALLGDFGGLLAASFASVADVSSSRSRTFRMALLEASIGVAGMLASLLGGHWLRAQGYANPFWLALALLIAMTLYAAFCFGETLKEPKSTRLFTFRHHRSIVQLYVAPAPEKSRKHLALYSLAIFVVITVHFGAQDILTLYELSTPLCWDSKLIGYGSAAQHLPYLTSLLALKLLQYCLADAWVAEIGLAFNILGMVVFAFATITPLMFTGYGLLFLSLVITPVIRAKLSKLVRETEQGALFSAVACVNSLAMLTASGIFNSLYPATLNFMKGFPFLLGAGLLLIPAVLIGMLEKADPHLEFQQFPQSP
UniProt Q2M3R5: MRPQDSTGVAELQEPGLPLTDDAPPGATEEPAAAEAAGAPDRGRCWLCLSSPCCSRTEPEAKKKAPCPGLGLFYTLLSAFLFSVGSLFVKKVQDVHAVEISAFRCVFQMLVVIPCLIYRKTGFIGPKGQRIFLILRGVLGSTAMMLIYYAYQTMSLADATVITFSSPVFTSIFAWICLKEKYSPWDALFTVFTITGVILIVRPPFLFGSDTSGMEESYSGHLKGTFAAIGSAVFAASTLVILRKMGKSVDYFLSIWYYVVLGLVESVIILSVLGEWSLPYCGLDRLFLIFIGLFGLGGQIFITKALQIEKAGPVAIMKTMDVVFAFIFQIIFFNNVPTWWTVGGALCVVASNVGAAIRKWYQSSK
UniProt Q9Y2P4: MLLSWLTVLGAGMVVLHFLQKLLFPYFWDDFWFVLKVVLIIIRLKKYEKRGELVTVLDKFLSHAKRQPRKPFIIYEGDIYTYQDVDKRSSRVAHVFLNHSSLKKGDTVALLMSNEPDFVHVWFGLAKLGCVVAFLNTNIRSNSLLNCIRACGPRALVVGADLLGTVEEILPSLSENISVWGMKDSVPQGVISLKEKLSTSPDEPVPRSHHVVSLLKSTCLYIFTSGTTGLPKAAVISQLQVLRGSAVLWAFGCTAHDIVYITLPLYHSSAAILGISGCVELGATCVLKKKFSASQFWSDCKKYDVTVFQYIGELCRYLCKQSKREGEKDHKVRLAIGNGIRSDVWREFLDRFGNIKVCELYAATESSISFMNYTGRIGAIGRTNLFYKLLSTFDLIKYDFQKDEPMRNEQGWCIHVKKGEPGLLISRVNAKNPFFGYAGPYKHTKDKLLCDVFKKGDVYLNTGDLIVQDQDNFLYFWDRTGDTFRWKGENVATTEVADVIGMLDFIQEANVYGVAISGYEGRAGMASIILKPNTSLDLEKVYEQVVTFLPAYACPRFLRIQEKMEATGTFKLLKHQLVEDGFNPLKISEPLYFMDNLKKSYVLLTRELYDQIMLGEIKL
UniProt Q8WV83: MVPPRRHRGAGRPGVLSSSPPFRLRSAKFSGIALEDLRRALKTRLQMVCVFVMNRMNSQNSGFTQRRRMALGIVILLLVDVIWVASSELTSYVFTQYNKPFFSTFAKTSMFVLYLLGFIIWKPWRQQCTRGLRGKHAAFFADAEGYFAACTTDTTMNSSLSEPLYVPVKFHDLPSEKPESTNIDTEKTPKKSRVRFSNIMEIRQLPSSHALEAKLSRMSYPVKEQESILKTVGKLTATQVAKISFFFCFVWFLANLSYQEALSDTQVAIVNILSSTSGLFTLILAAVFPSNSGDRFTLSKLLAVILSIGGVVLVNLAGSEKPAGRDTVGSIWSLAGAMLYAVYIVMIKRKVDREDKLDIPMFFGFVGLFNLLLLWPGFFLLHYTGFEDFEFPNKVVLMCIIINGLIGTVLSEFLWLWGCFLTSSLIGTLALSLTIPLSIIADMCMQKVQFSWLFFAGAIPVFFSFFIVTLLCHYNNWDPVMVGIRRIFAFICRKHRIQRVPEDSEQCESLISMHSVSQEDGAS

Key:
Assay in all cases: log2 fold change, soluble protein after heating vs DMSO (PISA); higher = thermal stabilisation; K562 cells, 10 uM, 30 min; active = over 0.2 and 3.5 SD of the protein, either way, in both replicates (recomputed)
[1] = compound: CC[C@@H]1C(=O)N(C)c2cnc(Nc3ccc(C(=O)NC4CCN(C)CC4)cc3OC)nc2N1C1CCCC1
Procedure, shortened: (§1)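 K562 cells at 2×10^6 cells/mL were treated for 30 min with 10 μM compound, and aliquots were heated for 3 min over 48°C-58°C before pooling. Extraction used PBS with 0.5% NP-40 at 4°C, and soluble protein was the supernatant after 21,000xg for 90 min, measured by TMTpro 16plex LC-MS/MS with channel sums equalised. Thermal stability values, relative to control samples and from duplicates, are log2 fold changes.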

[2] = compound: CC[C@H](C)N1C=C(C2=C(C=C(C=C21)C3=CN=C(C=C3)N4CCNCC4)C(=O)NCC5=C(C=C(NC5=O)C)C)C
Procedure, shortened: as §1

epoxomicin = compound: CC[C@H](C)[C@@H](C(=O)N[C@@H]([C@@H](C)O)C(=O)N[C@@H](CC(C)C)C(=O)[C@]1(CO1)C)NC(=O)[C@H]([C@@H](C)CC)N(C)C(=O)C [epoxomicin]
Procedure, shortened: as §1

[3] = compound: CN(C)CC(=O)Nc1ccc2[nH]c(=O)c3ccccc3c2c1
Procedure, shortened: as §1

sotrastaurin = compound: CN1CCN(c2nc(C3=C(c4c[nH]c5ccccc45)C(=O)NC3=O)c3ccccc3n2)CC1 [sotrastaurin]
Procedure, shortened: as §1

Tubastatin A = compound: CN1CCc2c(c3ccccc3n2Cc2ccc(C(=O)NO)cc2)C1 [Tubastatin A]
Procedure, shortened: as §1

[4] = compound: CNC(=O)C1=CC=CC=C1NC2=NC(=NC=C2Cl)NC3=C(C=C(C=C3)N4CCOCC4)OC
Procedure, shortened: as §1

defactinib = compound: CNC(=O)c1ccc(Nc2ncc(C(F)(F)F)c(NCc3nccnc3N(C)S(C)(=O)=O)n2)cc1 [defactinib]
Procedure, shortened: as §1

rucaparib = compound: CNCc1ccc(-c2[nH]c3cc(F)cc4c3c2CCNC4=O)cc1 [rucaparib]
Procedure, shortened: as §1

encorafenib = compound: COC(=O)N[C@@H](C)CNc1nccc(-c2cn(C(C)C)nc2-c2cc(Cl)cc(NS(C)(=O)=O)c2F)n1 [encorafenib]
Procedure, shortened: as §1

[5] = compound: COC(=O)[C@H](CCSC)NC(=O)C1=C(C=C(C=C1)NC[C@H](CS)N)C2=CC=CC=C2
Procedure, shortened: as §1

volasertib = compound: CC[C@@H]1C(=O)N(C)c2cnc(Nc3ccc(C(=O)N[C@H]4CC[C@H](N5CCN(CC6CC6)CC5)CC4)cc3OC)nc2N1C(C)C [volasertib]
Procedure, shortened: as §1

alvocidib = compound: CN1CC[C@H](c2c(O)cc(O)c3c(=O)cc(-c4ccccc4Cl)oc23)[C@H](O)C1 [alvocidib]
Procedure, shortened: as §1

[6] = compound: CCn1c(C(=O)N(C2CC2)C2CC2)cc2c3c(ncn3C)c(Nc3cc(C)n(C)n3)nc21
Procedure, shortened: as §1

rosiglitazone = compound: CN(CCOC1=CC=C(C=C1)C[C@H]2C(=O)NC(=O)S2)C3=CC=CC=N3 (racemic) [rosiglitazone]
Procedure, shortened: as §1

[7] = compound: CCn1cc(-c2ccnc3[nH]c(-c4cccc(CN(C)C)c4)cc23)c(-c2ccc(NC(=O)N(C)C)cc2)n1
Procedure, shortened: as §1

[8] = compound: CN1CCC(CNc2ccc3ncc(-c4cccc(OC(F)(F)F)c4)n3n2)CC1
Procedure, shortened: as §1

[9] = compound: CN1C2=C(C3=C1C(=O)N(N=C3)CC4=CC(=CC=C4)N)SC(=C2)S(=O)C
Procedure, shortened: as §1

saracatinib = compound: CN1CCN(CCOc2cc(OC3CCOCC3)c3c(Nc4c(Cl)ccc5c4OCO5)ncnc3c2)CC1 [saracatinib]
Procedure, shortened: as §1

[10] = compound: CNc1nc(-c2ccc3c(N)n[nH]c3c2)cc(N2C[C@@H](C(=O)NC3CCCCC3)CC[C@H]2C)n1
Procedure, shortened: as §1

Measured: log2 fold change

SLC35B4 (UniProt Q969S0)
inactive: [1] -0.003 | [2] -0.041 | epoxomicin 0.044 | [3] -0.134 | sotrastaurin 0.012 | Tubastatin A 0.014 | [4] 0.046 | defactinib 0.086 | rucaparib 0.036 | encorafenib -0.015 | [5] -0.146

SLC35D1 (UniProt Q9NTN3)
inactive: volasertib -0.363 | [3] 0.012 | alvocidib 0.111 | Tubastatin A -0.148 | defactinib -0.044 | [5] -0.094

SLC36A4 (UniProt Q6YBV0)
inactive: epoxomicin 0.419 | [6] -0.136 | rosiglitazone 0.049 | [4] -0.078

SLC23A2 (UniProt Q9UGH3)
inactive: [2] 0.035 | [6] -0.037 | rosiglitazone 0.084 | sotrastaurin 0.165 | Tubastatin A 0.101 | [4] -0.024

SLC52A2 (UniProt Q9HAB3)
inactive: [1] -0.055 | [2] -0.039 | [6] -0.037 | [7] -0.112 | rosiglitazone -0.089 | [8] 0.317 | Tubastatin A -0.258 | [4] 0.126 | rucaparib 0.011 | encorafenib 0.05

SLC3A2 (UniProt F5H867)
inactive: volasertib -0.01 | [2] 0.263 | epoxomicin -0.179 | [6] -0.062 | [7] 0.05 | rosiglitazone 0.163 | [9] -0.023 | [8] 0.004 | saracatinib 0.058 | sotrastaurin 0.148 | Tubastatin A 0.003 | [4] -0.139 | [10] -0.084

SLC26A2 (UniProt P50443)
inactive: [2] -0.251 | epoxomicin 0.045 | [7] 0.089 | [3] 0.007 | [9] 0.292 | [8] -0.116 | saracatinib -0.079 | defactinib 0.02 | [10] 0.032 | [5] 0.027

SLC10A3 (UniProt P09131)
inactive: [2] 0.004 | epoxomicin 0.141 | [6] 0.044 | rosiglitazone -0.081 | Tubastatin A -0.078 | [4] -0.095

SLC35B3 (UniProt Q9H1N7)
inactive: [1] 0.093 | [2] 0.074 | epoxomicin -0.054 | [6] 0.039 | [3] -0.141 | rosiglitazone 0.01 | [9] 0.01 | saracatinib 0.139 | sotrastaurin 0.093 | alvocidib -0.224 | Tubastatin A 0.093 | [4] 0.038 | defactinib -0.015 | rucaparib -0.052 | [10] -0.04 | encorafenib 0.017 | [5] -0.161

SLC36A1 (UniProt E5RG64)
inactive: rosiglitazone -0.306

SLC35C2 isoform 3 (UniProt Q9NQQ7)
inactive: [1] 0.048 | [2] -0.168 | epoxomicin 0.061 | [6] 0.169 | rosiglitazone 0.009 | alvocidib 0.095 | [4] -0.086 | rucaparib -0.08 | encorafenib -0.086

SLC22A4 (UniProt Q9H015)
inactive: volasertib 0.071 | epoxomicin -0.048 | [3] -0.013 | [9] -0.075 | saracatinib -0.08 | alvocidib 0.072 | Tubastatin A 0.022 | defactinib -0.09 | [10] 0.062 | [5] 0.129

SLC43A3 (UniProt Q8NBI5)
inactive: volasertib 0.26 | epoxomicin 0.059 | sotrastaurin -0.027

SLC66A2 (UniProt Q8N2U9)
inactive: [2] -0.085 | epoxomicin 0.103 | [6] 0.509 | rosiglitazone 0.175 | [4] 0.053

SLC36A1 (UniProt Q7Z2H8)
inactive: [6] -0.087 | [9] -0.103 | saracatinib 0.106 | [4] -0.124 | [10] 0.257

SLC26A11 (UniProt I3L0N9)
inactive: rosiglitazone 0.078

SLC41A1 (UniProt Q8IVJ1)
inactive: volasertib -0.401 | [2] 0.056 | epoxomicin 0.35 | [7] -0.154 | [8] 0.274 | sotrastaurin -0.036

SLC25A28 (UniProt Q96A46)
inactive: volasertib -0.377 | [2] -0.189 | rosiglitazone 0.091 | sotrastaurin 0.131

SLC22A5 isoform 3 (UniProt O76082)
inactive: volasertib 0.015 | [2] 0.109 | epoxomicin 0.178 | [7] -0.074 | [3] -0.03 | rosiglitazone 0.031 | [8] 0.375 | defactinib -0.124 | [5] -0.057

SLC25A26 (UniProt Q70HW3)
inactive: [1] 0.177 | [2] -0.04 | epoxomicin -0.024 | [6] -0.001 | [7] 0.082 | [3] 0.085 | rosiglitazone 0.003 | [9] -0.111 | [8] 0.168 | saracatinib 0.067 | sotrastaurin 0.013 | alvocidib 0.042 | Tubastatin A 0.205 | [4] 0.074 | defactinib -0.156 | rucaparib -0.001 | [10] -0.092 | encorafenib -0.009 | [5] 0.134

SLC48A1 (UniProt Q6P1K1)
inactive: [1] 0 | [2] -0.174 | [6] 0.1 | rosiglitazone 0.021 | sotrastaurin -0.087 | [4] -0.075 | rucaparib -0.161 | encorafenib 0.103

SLC39A1 (UniProt Q9NY26)
inactive: [7] -0.014 | [8] -0.051 | [4] -0.129

SLC17A5 (UniProt Q9NRA2)
inactive: [1] 0.145 | volasertib 0.027 | [6] -0.024 | sotrastaurin -0.037 | [4] -0.008 | rucaparib -0.102 | encorafenib 0.009

SLC44A2 isoform 2 (UniProt Q8IWA5)
inactive: [1] 0.2 | [2] 0 | epoxomicin 0.053 | [7] -0.105 | [3] -0.048 | [9] -0.154 | [8] 0.259 | saracatinib 0.104 | sotrastaurin 0.056 | Tubastatin A -0.053 | [4] -0.055 | defactinib -0.137 | rucaparib -0.044 | [10] 0.043 | encorafenib -0.125 | [5] 0.02

SLC41A3 isoform 9 (UniProt Q96GZ6)
inactive: [1] 0.081 | [2] -0.072 | epoxomicin -0.07 | [6] 0.009 | [7] 0.081 | rosiglitazone 0.062 | [8] -0.058 | sotrastaurin 0.134 | Tubastatin A -0.124 | [4] 0.056 | rucaparib -0.188 | encorafenib 0.029

SLC46A1 (UniProt Q96NT5)
inactive: [1] 0.156 | [7] -0.072 | [3] -0.041 | [8] 0.087 | Tubastatin A 0.067 | [4] 0.085 | defactinib 0.034 | rucaparib -0.081 | encorafenib -0.051 | [5] -0.011

SLC66A1 (UniProt Q6ZP29)
inactive: [1] -0.271 | [2] 0.069 | [6] 0.181 | rosiglitazone 0.204 | [4] 0.316 | rucaparib -0.175 | encorafenib 0.022

SLC35G1 (UniProt Q2M3R5)
inactive: Tubastatin A -0.113

SLC39A9 (UniProt Q9NUM3)
inactive: [3] 0.242 | alvocidib -0.35 | Tubastatin A 0.286 | defactinib -0.037 | [5] -0.118

SLC66A3 (UniProt Q8N755)
inactive: [2] -0.171 | epoxomicin -0.227 | [6] -0.105 | sotrastaurin 0.09 | [4] 0.097

SLC27A6 (UniProt Q9Y2P4)
inactive: [2] 0.035 | epoxomicin -0.022 | [6] 0.014 | [3] -0.048 | rosiglitazone 0.17 | alvocidib -0.311 | Tubastatin A 0.197 | [4] 0.104 | defactinib 0 | [5] -0.247

3 consecutive records from above, for reference:
SLC39A9 (UniProt Q9NUM3)
inactive: [3] 0.242 | alvocidib -0.35 | Tubastatin A 0.286 | defactinib -0.037 | [5] -0.118

SLC66A3 (UniProt Q8N755)
inactive: [2] -0.171 | epoxomicin -0.227 | [6] -0.105 | sotrastaurin 0.09 | [4] 0.097

SLC27A6 (UniProt Q9Y2P4)
inactive: [2] 0.035 | epoxomicin -0.022 | [6] 0.014 | [3] -0.048 | rosiglitazone 0.17 | alvocidib -0.311 | Tubastatin A 0.197 | [4] 0.104 | defactinib 0 | [5] -0.247

Later entries:

SLC27A1 (UniProt Q6PCB7)
active: volasertib -0.639
inactive: [2] 0.022 | epoxomicin -0.021 | [3] 0.008 | [9] -0.072 | saracatinib -0.007 | sotrastaurin 0.013 | Tubastatin A -0.252 | [4] -0.011 | defactinib 0.064 | [10] 0.146 | [5] -0.183

SLC35E3 (UniProt Q7Z769)
inactive: volasertib 0 | [2] -0.183 | epoxomicin -0.111 | [6] 0.082 | [9] 0.05 | saracatinib -0.012 | sotrastaurin 0.046 | Tubastatin A -0.123 | [4] -0.018 | [10] 0.075

SLC35E2B (UniProt P0CK96)
inactive: volasertib -0.171 | [3] -0.093 | rosiglitazone 0.021 | sotrastaurin 0.114 | alvocidib 0.108 | defactinib 0.109 | [5] 0.083

SLC35F5 (UniProt Q8WV83)
inactive: volasertib -0.144 | [2] 0.27 | epoxomicin 0.171 | [7] 0.046 | rosiglitazone -0.222 | [8] -0.276 | sotrastaurin 0.082
